Data as given in paper PMC4432228, “Tight regulation of the unfolded protein sensor Ire1 by its intramolecularly antagonizing subdomain” (Journal of Cell Science, 2015).
These are yes or no findings as the source states them, for the method shown. Some entries that bind do so weakly or less than the wild type. Where a sequence is shown, tags or fusion partners need not be part of it.

Tests used:
Test in all cases: two-hybrid; Matchmaker Gold; bait in pGBKT7 (Y2HGold) and prey in pGADT7 mated; tenfold dilutions spotted on -Leu/-Trp plates with 125 ng/ml aureobasidin A, 2-4 days at 30°C (Fig. 6A,B)
[1] = target: T1, Top2 intrinsically disordered region (IDR), two tandem repeat, two-hybrid bait (UniProt P06786)
T1 sequence: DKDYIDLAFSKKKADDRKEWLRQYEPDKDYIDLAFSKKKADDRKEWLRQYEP

[2] = target: T2, N-terminal unconserved region (NUCR) of human PERK, two-hybrid bait (human) (UniProt Q9NZJ5)
T2 sequence: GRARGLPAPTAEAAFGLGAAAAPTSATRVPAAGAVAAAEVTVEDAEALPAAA

[3] = target: T3, N-terminal unconserved region (NUCR) of mouse PERK, two-hybrid bait (mouse) (UniProt Q9Z2B5)
T3 sequence: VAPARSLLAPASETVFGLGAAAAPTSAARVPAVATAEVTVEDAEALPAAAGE

[4] = target: T4, San1 intrinsically disordered region (IDR), two-hybrid bait (UniProt P22470)
T4 sequence: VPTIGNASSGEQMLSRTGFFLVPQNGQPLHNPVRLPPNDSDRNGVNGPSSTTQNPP

[5] = target: T5, GGGSS, 12 tandem repeat, two-hybrid bait
T5 sequence: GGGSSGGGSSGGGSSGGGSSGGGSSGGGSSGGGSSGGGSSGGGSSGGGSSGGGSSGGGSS

Measured: binding

B1: core stress-sensing region (CSSR) of yeast Ire1, two-hybrid fusion (domain or fragment, UniProt P32361 112-454)
chain: RSLNELSLSDILIAADVEGGLHAVDRRNGHIIWSIEPENFQPLIEIQEPSRLETYETLIIEPFGDGNIYYFNAHQGLQKLPLSIRQLVSTSPLHLKTNIVVNDSGKIVEDEKVYTGSMRTIMYTINMLNGEIISAFGPGSKNGYFGSQSVDCSPEEKIKLQECENMIVIGKTIFELGIHSYDGASYNVTYSTWQQNVLDVPLALQNTFSKDGMCIAPFRDKSLLASDLDFRIARWVSPTFPGIIVGLFDVFNDLRTNENILVPHPFNPGDHESISSNKVYLDQTSNLSWFALSSQNFPSLVESAPISRYASSDRWRVSSIFEDETLFKNAIMGVHQIYNNEYD
binds: [1] | [2] | [3] | [4] | [5]
